Assay results: patent US7601501B2, “Controlling osteogenesis by inhibition of osteogenic suppressors” (The Scripps Research Institute, priority 2006, dated 2009)
For at least one compound, name, drawing or mass did not settle the structure.

Tested on: human mesenchymal stem cells (hMSCs)
Assay: Compound treatment: OS-induced osteogenic differentiation of hMSCs (ALP / alizarin red staining)
Assay type: cell-based
Conditions: compound combined with OS treatment; ALP and/or alizarin red staining
Procedure: 8-CPT-cAMP, Na (cat# 116812), 5-Iodotubercidin (cat# 407900), Prostaglandin E2 (PGE2, cat# 538904), SB 202190 (cat# 559388) and U0126 (cat# 662005) were purchased from Calbiochem; N6,2′-O-Dibutyryl-cAMP (cat# D0260-5MG), forskolin (cat# F6886), ascorbic acid 2-phosphate (cat# 49752-10G), β-glycerophosphate (G-6251), dexamethasone (D8893), 3-isobutyl-1-methylxanthine (IBMX, I5879) and Insulin (I 9278) were purchased from Sigma/Aldrich/Fluka.
Since the targeted genes are all positively involved in intracellular cAMP signaling, we tested the effect of two compounds of opposing function on cAMP production on osteogenic differentiation of hMSCs, ADK inhibitor 5-iodotubercidin and ADCY activator forskolin (Cottam, H. B. et al., J Med Chem 36:3424-3430 (1993); de Souza, N. J. et al., Med Res Rev 3:201-219 (1983)). […] ATP has been shown as a ligand for P2RY11 receptor (Communi et al., 1997). […] The present observations are consistent with the conclusion that […] in hMSCs, and vice versa.

C=C[C@@]1(C)CC(=O)[C@]2(O)[C@@]3(C)[C@@H](O)CCC(C)(C)[C@@H]3[C@H](O)[C@H](OC(C)=O)[C@@]2(C)O1 [forskolin]
osteogenic effect of the OS media on hMSCs: inhibited the osteogenic effect of the OS media on hMSCs in a dose dependent manner
